No constants are given. Whether binding was seen depends on the method and setting. Some entries that bind do so weakly or less than the wild type.
Key:
[1] = biological target: recombinant human TNF-alpha (Life Technologies) (human) (UniProt P01375); assay: Biacore SPR: conjugate fixed to the sensor chip via an amino group, recombinant human TNF-alpha as analyte at 0.78-100 nM
[2] = biological target: recombinant human TNF-alpha (Life Technologies) (human) (UniProt P01375); assay: SPR (Biacore)
[3] = biological target: recombinant human TNF-alpha (Life Technologies) (human) (UniProt P01375); assay: depletion of TNF-alpha from medium with the conjugate and diol Sepharose beads; remaining TNF-alpha measured by ELISA
[4] = biological target: recombinant human TNF-alpha (Life Technologies) (human) (UniProt P01375); assay: depletion assay: serially diluted conjugate mixed with human TNF-alpha (100% = 6.2 ng/mL), complex adsorbed on diol Sepharose beads, TNF-alpha remaining in the supernatant measured by ELISA; 1st experiment
[5] = biological target: recombinant human TNF-alpha (Life Technologies) (human) (UniProt P01375); assay: depletion assay: serially diluted conjugate mixed with human TNF-alpha (100% = 6.2 ng/mL), complex adsorbed on diol Sepharose beads, TNF-alpha remaining in the supernatant measured by ELISA; 2nd experiment

Sequences of proteins named here, by UniProt entry; tags and fusion partners are left off. Residues count along the entry.
UniProt P01375, residues 77-233: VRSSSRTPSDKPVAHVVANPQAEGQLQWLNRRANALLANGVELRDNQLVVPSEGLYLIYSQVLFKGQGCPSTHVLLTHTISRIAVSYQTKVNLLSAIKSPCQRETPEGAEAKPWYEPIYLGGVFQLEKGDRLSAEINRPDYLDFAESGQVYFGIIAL

Measured: binding

B1: conjugate of the extracellular region of human TNF receptor 2 (TNFR2) and mutant recombinant human intelectin-1 (S165A) (receptor)
chain: LPAQVAFTPYAPEPGSTCRLREYYDQTAQMCCSKCSPGQHAKVFCTKTSDTVCDSCEDSTYTQLWNWVPECLSCGSRCSSDQVETQACTREQNRICTCRPGWYCALSKQEGCRLCAPLRKCRPGFGVARPGTETSDVVCKPCAPGTFSNTTSSTDICRPHQICNVVAIPGNASMDAVCTSTSPTRSMAPGAVHLPQPVSTRSQHTQPTPEPSTAPSTSFLLPMGPSPPAEGSTGDGTDEANTYFKEWTCSSSPSLPRSCKEIKDECPSAFDGLYFLRTENGVIYQTFCDMTSGGGGWTLVASVHENDMRGKCTVGDRWSSQQGSKADYPEGDGNWANYNTFGSAEAATSDDYKNPGYYDIQAKDLGIWHVPNKSPMQHWRNSALLRYRTDTGFLQTLGHNLFGIYQKYPVKYGEGKCWTDNGPVIPVVYDFGDAQKTASYYSPYGQREFTAGFVQFRVFNNERAANALCAGMRVTGCNTEHHCIGGGGYFPEASPQQCGDFSGFDWSGYGTHVGYSSSREITEAAVLLFYR
binds: [1] | [2] | [3] | [4] | [5]
